From publication PMC2346455
Results are given in words; binding and its absence hold for the method and conditions named.

Target: T1, Filgrastim reference standard (rhG-CSF, NIBISC) (human), P09919
T1 chain: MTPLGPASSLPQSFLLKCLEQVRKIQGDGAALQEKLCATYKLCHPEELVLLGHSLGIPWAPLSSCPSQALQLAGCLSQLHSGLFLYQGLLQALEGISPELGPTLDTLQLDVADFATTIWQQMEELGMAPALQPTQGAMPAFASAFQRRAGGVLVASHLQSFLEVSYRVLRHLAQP
Experiment: SEC; size-exclusion HPLC, BioSep-SEC 2000 column, room temperature, mobile phase 0.1 M phosphoric acid pH 2.5, 1 mL/min, 200 μg mL^-1 of sample or standard loaded, detection at 214 nm; both purified
Conditions: remark: other sources report otherwise

B1: Filgrastim reference standard (rhG-CSF, NIBISC), P09919-2 31-204 (protein)
chain: MTPLGPASSLPQSFLLKCLEQVRKIQGDGAALQEKLCATYKLCHPEELVLLGHSLGIPWAPLSSCPSQALQLAGCLSQLHSGLFLYQGLLQALEGISPELGPTLDTLQLDVADFATTIWQQMEELGMAPALQPTQGAMPAFASAFQRRAGGVLVASHLQSFLEVSYRVLRHLAQP
- binding: no binding (tested: 200 μg mL^-1)
